Reference: PubChem BioAssay AID1259308 (NCATS, 2017)
Purpose: 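Genes whose loss raises luciferase production in HEK293 cells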 (primary screen). Cells: human HEK293 embryonic kidney cells stably expressing firefly luciferase (HEK-CMV-Luc2-Hygro). Knock-down reagent: single siRNA against human genes, 0.8 pmol siRNA per well. Time to read-out: 72 h. Read-out: 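Reporter luminescence and viable-cell signal on separate replicate plates, given as percent of non-targeting control and median/MAD z-scores, plus per-cell luciferase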. Direction: total luciferase, z-score and total luciferase, % of control: higher = more reporter protein produced. Call rule: 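Active when the median/MAD z-score for overall luciferase is greater than 3; a gene was taken forward for validation with new siRNAs if at least two of its three siRNAs passed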. Calls: active = raised luciferase; inactive = no rise.
In all, the deposit lists about 59,000 reagents; this is a random part of them. About 1,510 of all reagents (2.6%) were called active. 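Calls use total luciferase alone and ignore viability, so some active siRNAs may act by altering cell number.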 The numbers tell different reagents against one gene apart. Further read-outs or replicates are left out here.

gene,siRNA no.,"total luciferase, z-score","total luciferase, % of control",Outcome
STIL (STIL centriolar assembly protein),1,0.752,96.8,inactive
STIL (STIL centriolar assembly protein),2,-1.56,50.8,inactive
STIL (STIL centriolar assembly protein),3,-1.02,61.5,inactive
CUL1 (cullin 1),1,-1.44,53.2,inactive
CUL1 (cullin 1),2,-0.118,79.5,inactive
CUL1 (cullin 1),3,0.514,92.1,inactive
ENY2 (ENY2 transcription and export complex 2 subunit),1,0.267,87.2,inactive
ENY2 (ENY2 transcription and export complex 2 subunit),2,1.11,104,inactive
ENY2 (ENY2 transcription and export complex 2 subunit),3,4.38,169,active
SNAI2 (snail family transcriptional repressor 2),1,1.75,117,inactive
SNAI2 (snail family transcriptional repressor 2),2,-0.427,73.4,inactive
SNAI2 (snail family transcriptional repressor 2),3,0.168,85.2,inactive
HENMT1 (HEN methyltransferase 1),1,-0.918,63.6,inactive
HENMT1 (HEN methyltransferase 1),2,0.371,89.3,inactive
HENMT1 (HEN methyltransferase 1),3,-2.23,37.5,inactive

Records listed so far whose target name starts with S or s (6):
gene,siRNA no.,"total luciferase, z-score","total luciferase, % of control",Outcome
STIL (STIL centriolar assembly protein),1,0.752,96.8,inactive
STIL (STIL centriolar assembly protein),2,-1.56,50.8,inactive
STIL (STIL centriolar assembly protein),3,-1.02,61.5,inactive
SNAI2 (snail family transcriptional repressor 2),1,1.75,117,inactive
SNAI2 (snail family transcriptional repressor 2),2,-0.427,73.4,inactive
SNAI2 (snail family transcriptional repressor 2),3,0.168,85.2,inactive

The listing continues.
gene,siRNA no.,"total luciferase, z-score","total luciferase, % of control",Outcome
SLC41A2,1,-1.16,58.7,inactive
SLC41A2,2,0.458,91,inactive
SLC41A2,3,0.698,95.8,inactive
OR52K2 (olfactory receptor family 52 subfamily K member 2),1,0.34,88.6,inactive
OR52K2 (olfactory receptor family 52 subfamily K member 2),2,-0.878,64.4,inactive
OR52K2 (olfactory receptor family 52 subfamily K member 2),3,-0.798,66,inactive
ZCCHC14 (zinc finger CCHC-type containing 14),1,-0.0606,80.7,inactive
ZCCHC14 (zinc finger CCHC-type containing 14),2,0.326,88.4,inactive
ZCCHC14 (zinc finger CCHC-type containing 14),3,-0.873,64.5,inactive
